Among the data in US7105305 are binding values, retold here.

The chains behind the UniProt entries cited, without tags or fusion partners. Residues count along the entry.
UniProt P26450, residues 2-724: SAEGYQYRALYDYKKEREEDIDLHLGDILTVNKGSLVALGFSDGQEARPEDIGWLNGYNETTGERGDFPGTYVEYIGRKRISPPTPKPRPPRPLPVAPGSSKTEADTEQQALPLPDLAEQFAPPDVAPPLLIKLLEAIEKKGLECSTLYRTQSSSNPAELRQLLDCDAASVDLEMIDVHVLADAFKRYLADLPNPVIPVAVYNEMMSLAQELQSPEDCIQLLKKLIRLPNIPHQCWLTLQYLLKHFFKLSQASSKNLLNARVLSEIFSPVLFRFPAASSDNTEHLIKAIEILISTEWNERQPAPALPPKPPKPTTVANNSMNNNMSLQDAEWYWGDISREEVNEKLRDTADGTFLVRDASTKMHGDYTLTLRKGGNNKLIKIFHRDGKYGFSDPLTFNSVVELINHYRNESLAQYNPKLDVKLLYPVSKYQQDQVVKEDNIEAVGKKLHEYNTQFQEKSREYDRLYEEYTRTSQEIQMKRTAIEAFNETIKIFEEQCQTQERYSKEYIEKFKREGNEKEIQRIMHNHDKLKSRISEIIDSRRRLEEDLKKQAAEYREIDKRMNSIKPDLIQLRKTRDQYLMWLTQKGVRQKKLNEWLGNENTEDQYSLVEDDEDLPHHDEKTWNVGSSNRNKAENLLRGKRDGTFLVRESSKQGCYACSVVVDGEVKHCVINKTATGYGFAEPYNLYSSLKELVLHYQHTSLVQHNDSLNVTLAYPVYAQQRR

This assay addresses 85 kD protein of BALB/c 3T3 cells (mouse) (UniProt P26450). In words: competition: peptide preincubated with 3T3 lysate before the immobilized receptor.

No constants are given. Whether binding was seen depends on the method and setting. Some binding calls cover weakened binding; strength is not graded here.

MDMSKDESIDYVPMLDM (phosphotyrosine at position 719 (the only Tyr of the peptide)) [peptide Y719P short]: the binding entry was “binds”. As to GGYMDMSKDESID (phosphotyrosine at position 708 (the only Tyr of the peptide)) [peptide Y708P short], the binding entry is “binds”.
